Results deposited as PubChem BioAssay AID1224826 (NIAID, 2016).
Assay: 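Knock-downs that raise or lower Tnf reporter signal after endotoxin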 (primary screen). Cell system: RAW264.7 G9 macrophages from mouse bearing reporters for p65 (GFP) and the Tnf promoter (mCherry). Reagent: siRNA pool against mouse genes, 100 nM. Duration: 16 h of LPS stimulation, after 2 days of siRNA transfection. Conditions: bacterial lipopolysaccharide (Salmonella minnesota R595), 10 ng/ml. Detection: 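Nuclear mCherry signal of the Tnf promoter reporter measured by imaging after background removal, scaled to each plate median and turned into robust z-scores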. Scale: Tnf reporter robust z-score: higher = stronger Tnf promoter reporter signal after LPS. Active means: 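a well counts as active at a score of -1.3 or below (Tlr4 knock-down control median) or above 3 (raised signal); controls and wells holding fewer than 50 cells are excluded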. Calls: active = Tnf reporter clearly lowered or raised; inactive = no clear change in Tnf reporter.
Here is an unselected part of about 17,000 deposited reagents. About 1,110 of all reagents (6.6%) were called active. 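Active means lowered or raised reporter signal; replicate intensities are raw and not normalised per plate.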 Entries without a mark were called inactive. Not all columns of the deposit are shown.

What did the screen give for Spef1 (GeneID 70997) [SID315474172]?
fewer than 50 cells in well: fewer than 50 cells per well; well left out of calls

For Dyrk4 (GeneID 101320) [SID315476272], what was measured?
Tnf reporter robust z-score: 1.51; fewer than 50 cells in well: enough cells in well

Which result is listed for Rgs5 (GeneID 19737) [SID315468970]?
Tnf reporter robust z-score: -0.11; fewer than 50 cells in well: enough cells in well

What is on record for B230325K18Rik (GeneID 319527) [SID315481109]?
Tnf reporter robust z-score: -0.12; fewer than 50 cells in well: enough cells in well

For Bglap3 (GeneID 12095) [SID315465631], what does the deposit list?
Tnf reporter robust z-score: 1.51; fewer than 50 cells in well: enough cells in well

For Msantd1 (GeneID 403174) [SID315481895], how do the results read?
Tnf reporter robust z-score: -0.67; fewer than 50 cells in well: enough cells in well

With A130050O07Rik (GeneID 320138) [SID315481236], what was measured?
Tnf reporter robust z-score: -1.06; fewer than 50 cells in well: enough cells in well

Which result is listed for Adamts7 (GeneID 108153) [SID315476708]?
Tnf reporter robust z-score: -1.21; fewer than 50 cells in well: enough cells in well

With Cbx3 (GeneID 12417) [SID315465804], what was measured?
Tnf reporter robust z-score: 0.38; fewer than 50 cells in well: enough cells in well

What did the screen give for Ier3ip1 (GeneID 66191) [SID315472276]?
Tnf reporter robust z-score: -0.98; fewer than 50 cells in well: enough cells in well

What did the screen give for Plekha3 (GeneID 83435) [SID315475823]?
Tnf reporter robust z-score: 1.48; fewer than 50 cells in well: enough cells in well

With Dbpht1 (retired record) (GeneID 20749) [SID315469436], what does the deposit list?
Tnf reporter robust z-score: -1.12; fewer than 50 cells in well: enough cells in well

Copied from the list:
Msantd1 (GeneID 403174) [SID315481895], fewer than 50 cells in well → enough cells in well
Result of Plekha3 (GeneID 83435) [SID315475823] in “Tnf reporter robust z-score”: 1.48
